Measurements taken from patent US20070237775A1 (Eli Lilly, published 2007).
No constants are given. Whether binding was seen depends on the method and setting. Some binding calls cover weakened binding; strength is not graded here.

Key:
[1] = target: T1, des-acyl human ghrelin (full length) (human); assay: ELISA, BIAcore and FLIPR assays
T1 sequence (peptide): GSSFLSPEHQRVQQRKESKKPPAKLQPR

[2] = target: T2, acylated rat ghrelin (full length, C8-acylated) (rat) (UniProt Q9QYH7); assay: ELISA, BIAcore and FLIPR assays
T2 sequence (peptide, C8 acyl group at amino acid 3, looked up): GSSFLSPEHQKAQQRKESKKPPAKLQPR

[3] = target: T3, acylated human ghrelin (full length, amino acids 1-28, C8-acylated) (human); assay: ELISA, BIAcore and FLIPR assays
T3 sequence (peptide, n-octanoyl (C8) acyl group on the serine at position 3): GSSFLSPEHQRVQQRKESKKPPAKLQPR

[4] = target: T4, des-acyl rat ghrelin (full length) (rat) (UniProt Q9QYH7); assay: ELISA, BIAcore and FLIPR assays
T4 sequence (peptide, looked up): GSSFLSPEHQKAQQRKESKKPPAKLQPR

[5] = target: T5, human ghrelin 1-27 (active analog) (human); assay: FLIPR calcium assay with active analogs
T5 sequence (peptide): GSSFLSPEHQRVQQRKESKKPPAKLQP

Measured: binding

B1: Fab 3281 (Fab, V domains shown)
VH: QVQLQQSRAELAKPGASVKMSCKASGYTFTSYWMHWVKQGPGQGLEWIGYINPSTGYTEYTQKFKDKATLTADKSSSTAYMQLSSLTSEDSAVYYCATDGYDEDYWGQGTTLTVSS
VL: DAVMTQIPLTLSVTIGQPASISCRSSQSLGHSNGNTYLHWYLQKPGQSPKLLIYKVSNRFSGVPDRFSGSGSGTDFTLKISRVEAEDLGTYFCSQSTLVPWTFGGGTKLEIKR
notes: Murine Fab from an Omniclonal antibody library (immunized C57/Bl6 mice); kappa light chain (captured and detected with goat anti-mouse kappa)
binds: all assays above

B2: Fab 4281 (Fab, V domains shown)
VH: QVQLQQSRAELAKPGASVKMSCKASGYTFTSYWIHWIKQRPGQGLEWIGYIDPGIGNIEYNQKFQDKATLTADKSSSIVYMQLNRLTSEDSAVYYCATDGYDEDYWGQGTTLTVSS
VL: DVVMTQTPLSLPVSLGDQASISCRSSQSLVHSNGNTYLHWYLQKPGQSPKLLIYKVSNRFSGVPDRFSGSGSGTDFTLKISRVEAEDLGTYFCSQSTLVPWTFGGGTKLEIKR
notes: Murine Fab, kappa light chain
binds: all assays above

B3: Fab 4731 (Fab, V domains shown)
VH: QVQLQQSRAELAKPGASVKMSCKASGYTFTSYWMHWVKQGPGQGLEWIGYINPSTGYTEYTQKFKDKATLTADKSSSTAYMQLSSLTSEDSAVYYCATDGYDEDYWGQGTTLTVSS
VL: DVVMTQTPLSLPVSLGDQASISCRSSQSLVHSNGNTYLHWYLQKPGQSPKLLIYKVSNRFSGVPDRFSGSGSGTDFTLKISRVEAEDLGTYFCSQSTLVPWTFGGGTKLEIKR
notes: Murine Fab, kappa light chain
binds: all assays above
